The target in the assay is T1, GasA (yeast two-hybrid fusion) (A. flagrans).
T1 sequence: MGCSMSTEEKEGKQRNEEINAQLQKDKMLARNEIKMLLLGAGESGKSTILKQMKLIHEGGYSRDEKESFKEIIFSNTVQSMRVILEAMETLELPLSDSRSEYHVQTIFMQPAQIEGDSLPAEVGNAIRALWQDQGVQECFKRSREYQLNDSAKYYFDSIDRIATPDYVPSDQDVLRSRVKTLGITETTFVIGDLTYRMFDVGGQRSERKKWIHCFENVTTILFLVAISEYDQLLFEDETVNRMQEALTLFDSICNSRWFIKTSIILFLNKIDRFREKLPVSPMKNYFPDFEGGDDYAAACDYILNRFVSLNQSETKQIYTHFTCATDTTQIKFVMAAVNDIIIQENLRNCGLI
Nature of the assay: two-hybrid; Matchmaker Gold system (Clontech); pGBKT7 and pGADT7; strains AH109 and Y187 mated; dilution series on SD-LW and SD-LWH agar plates for 3-5 days.

Binding data for 1 substance are collected here from article PMC11222155.

No constants are given. Whether binding was seen depends on the method and setting. A result given as binding can be weak or reduced; the word gives no strength. Where a sequence is shown, tags or fusion partners need not be part of it.

Take “C-terminal tail (111 amino acids) of GprC (yeast two-hybrid fusion) (A. flagrans) (domain or fragment)”: the binding result is “binds”.
